These are yes or no findings as the source states them, for the method shown. For part of these data: Binding seen in cells or lysates may run through a third protein. Some binding calls cover weakened binding; strength is not graded here.
Tests used:
[1] = biological target: bovine serum albumin (bovine) (UniProt P02769); experiment: condition: up to 5 x 10^5 c.p.m. of labelled ECD (axis of Figure 5); radioligand binding; 125I-labelled ECD in dilutions added to wells of 96-well plates adsorbed with laminin, fibronectin, BSA or MAb MGR2 at 10 pg per well (so in the source); both purified
[2] = biological target: beta 1 integrin subunit, endogenous (human (endogenous in MDA MB453)) (UniProt P05556); experiment: co-IP; MDA MB453 cells treated or not with laminin (50 pg ml-1 as printed) for 5 min, lysed in the absence of ionic detergent; 2 mg lysate immunoprecipitated with MAb 3E1 (beta 4) or MAR4 (beta 1); blot with MAb c-neu Ab3; filters reprobed with anti-beta 1 or anti-beta 4 antibodies
[3] = biological target: beta 4 integrin subunit, endogenous (human (endogenous in MDA MB453)) (UniProt P16144); experiment: as above

Sequences of proteins named here, by UniProt entry; tags and fusion partners are left off. Residues count along the entry.
UniProt P02769, residues 25-607: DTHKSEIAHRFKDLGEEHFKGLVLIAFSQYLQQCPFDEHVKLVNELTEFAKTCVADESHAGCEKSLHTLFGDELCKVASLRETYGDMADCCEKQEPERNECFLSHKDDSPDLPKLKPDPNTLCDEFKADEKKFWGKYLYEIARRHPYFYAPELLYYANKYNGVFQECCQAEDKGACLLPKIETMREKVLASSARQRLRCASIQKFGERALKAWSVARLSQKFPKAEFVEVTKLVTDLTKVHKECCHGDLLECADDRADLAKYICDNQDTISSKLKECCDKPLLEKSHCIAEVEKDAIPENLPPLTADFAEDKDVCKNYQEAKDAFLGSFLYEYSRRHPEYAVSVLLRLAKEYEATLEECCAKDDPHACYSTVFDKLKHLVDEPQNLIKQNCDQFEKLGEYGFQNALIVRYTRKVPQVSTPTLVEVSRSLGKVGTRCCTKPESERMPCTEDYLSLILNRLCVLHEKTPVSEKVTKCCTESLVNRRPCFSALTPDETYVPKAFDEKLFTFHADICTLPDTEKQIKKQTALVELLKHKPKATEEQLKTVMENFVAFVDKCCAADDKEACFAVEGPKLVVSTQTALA
UniProt P05556: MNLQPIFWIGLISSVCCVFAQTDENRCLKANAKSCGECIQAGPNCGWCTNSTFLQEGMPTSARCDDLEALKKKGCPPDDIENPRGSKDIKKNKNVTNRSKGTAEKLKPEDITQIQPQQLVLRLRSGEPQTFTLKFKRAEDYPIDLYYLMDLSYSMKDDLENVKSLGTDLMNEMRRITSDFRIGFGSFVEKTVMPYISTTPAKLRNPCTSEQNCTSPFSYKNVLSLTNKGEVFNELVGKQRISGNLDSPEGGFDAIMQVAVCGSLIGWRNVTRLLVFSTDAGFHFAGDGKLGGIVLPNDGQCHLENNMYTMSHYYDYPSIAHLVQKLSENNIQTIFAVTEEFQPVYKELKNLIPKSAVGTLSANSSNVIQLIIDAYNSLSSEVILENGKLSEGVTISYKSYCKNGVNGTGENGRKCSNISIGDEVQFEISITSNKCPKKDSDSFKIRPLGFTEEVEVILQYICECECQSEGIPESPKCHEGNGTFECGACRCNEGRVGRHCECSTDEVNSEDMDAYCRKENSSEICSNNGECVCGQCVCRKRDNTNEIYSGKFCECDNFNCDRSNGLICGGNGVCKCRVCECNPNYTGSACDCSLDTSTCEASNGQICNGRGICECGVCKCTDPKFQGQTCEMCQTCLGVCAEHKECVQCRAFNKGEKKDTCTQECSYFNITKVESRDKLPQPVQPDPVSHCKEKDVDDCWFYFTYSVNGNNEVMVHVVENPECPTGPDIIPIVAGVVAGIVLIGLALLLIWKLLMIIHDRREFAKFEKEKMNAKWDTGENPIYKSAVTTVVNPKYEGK
UniProt P16144, residues 28-1822: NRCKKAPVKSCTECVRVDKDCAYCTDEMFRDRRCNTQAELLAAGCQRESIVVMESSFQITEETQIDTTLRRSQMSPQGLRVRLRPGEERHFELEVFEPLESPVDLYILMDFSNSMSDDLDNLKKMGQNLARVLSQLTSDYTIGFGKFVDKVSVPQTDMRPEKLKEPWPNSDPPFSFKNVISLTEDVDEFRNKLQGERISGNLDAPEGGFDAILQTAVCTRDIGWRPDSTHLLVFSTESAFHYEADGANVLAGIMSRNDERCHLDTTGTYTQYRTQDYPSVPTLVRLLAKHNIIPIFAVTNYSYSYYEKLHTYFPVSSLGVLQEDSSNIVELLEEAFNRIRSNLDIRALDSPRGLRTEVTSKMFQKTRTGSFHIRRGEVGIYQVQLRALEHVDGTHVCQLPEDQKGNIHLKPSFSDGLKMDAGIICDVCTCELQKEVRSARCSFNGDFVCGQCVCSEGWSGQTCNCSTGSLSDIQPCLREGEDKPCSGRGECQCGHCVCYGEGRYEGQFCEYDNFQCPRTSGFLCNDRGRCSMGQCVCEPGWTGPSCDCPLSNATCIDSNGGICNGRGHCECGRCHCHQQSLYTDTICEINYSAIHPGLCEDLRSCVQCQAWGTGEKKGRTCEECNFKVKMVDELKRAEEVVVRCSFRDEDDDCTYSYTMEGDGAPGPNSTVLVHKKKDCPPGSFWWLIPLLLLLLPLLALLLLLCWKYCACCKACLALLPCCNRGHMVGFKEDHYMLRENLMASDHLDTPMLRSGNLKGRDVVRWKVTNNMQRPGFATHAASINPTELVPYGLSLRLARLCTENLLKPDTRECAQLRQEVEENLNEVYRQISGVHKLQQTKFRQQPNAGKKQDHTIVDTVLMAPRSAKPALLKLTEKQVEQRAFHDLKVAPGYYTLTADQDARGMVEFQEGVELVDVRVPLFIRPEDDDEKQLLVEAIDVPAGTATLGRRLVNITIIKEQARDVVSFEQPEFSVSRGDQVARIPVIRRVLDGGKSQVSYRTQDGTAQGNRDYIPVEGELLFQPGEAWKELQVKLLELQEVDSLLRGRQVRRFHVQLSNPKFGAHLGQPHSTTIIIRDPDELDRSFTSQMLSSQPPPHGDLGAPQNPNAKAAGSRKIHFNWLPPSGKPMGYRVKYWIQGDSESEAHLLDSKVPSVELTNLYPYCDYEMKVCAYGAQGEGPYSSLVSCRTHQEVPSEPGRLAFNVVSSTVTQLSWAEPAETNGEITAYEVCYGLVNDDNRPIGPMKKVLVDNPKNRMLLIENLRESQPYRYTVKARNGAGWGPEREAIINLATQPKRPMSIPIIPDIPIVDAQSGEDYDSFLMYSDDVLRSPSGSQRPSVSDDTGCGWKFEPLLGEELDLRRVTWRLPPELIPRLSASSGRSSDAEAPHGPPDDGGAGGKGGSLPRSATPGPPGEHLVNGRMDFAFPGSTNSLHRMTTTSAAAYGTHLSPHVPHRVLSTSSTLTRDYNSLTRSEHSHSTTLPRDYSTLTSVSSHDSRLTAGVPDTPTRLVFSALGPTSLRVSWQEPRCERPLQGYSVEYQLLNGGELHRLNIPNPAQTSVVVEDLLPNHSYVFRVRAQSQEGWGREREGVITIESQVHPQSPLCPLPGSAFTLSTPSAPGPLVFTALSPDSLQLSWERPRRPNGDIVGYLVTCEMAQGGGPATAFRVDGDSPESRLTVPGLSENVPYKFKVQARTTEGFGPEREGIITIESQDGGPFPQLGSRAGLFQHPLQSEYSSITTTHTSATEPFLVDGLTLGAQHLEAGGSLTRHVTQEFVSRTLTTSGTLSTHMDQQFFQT

| binding [1] | binding [2] | binding [3] | Substance |
| --- | --- | --- | --- |
| no binding |  |  | human c-erbB-2 receptor extracellular domain (ECD), recombinant, radiolabelled (from UniProt P04626 23-622) (domain or fragment) |
|  | no binding | binds | p185HER2 oncoprotein (c-erbB-2 product), endogenous in breast carcinoma cells (from UniProt P04626 23-1255) (receptor) |
